# Laboratory results as given in PubChem BioAssay AID445 (National Center for Advancing Translational Sciences (NCATS), 2006).
# The other results are listed elsewhere or left out. Shown are side measurements of this screen, not its main read-out; they come without a call. The list favours compounds with an active or inconclusive main result. The note in brackets gives the kind of curve behind each potency; many fits are weak.
# Assay: IkB Signaling
# Details: ABC-DLBCL IkBa-CBG/CBR dual luciferase ratio (green luciferase fused to IkBa over red control in OCI-Ly3 lymphoma cells), 4 h
# Summary of the method: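 Curves were fitted separately to fusion (green), unfused (red) and ratio luminescence, then classed by r2, magnitude and activity. Cells: OCI-Ly3, 4 h compound plus doxycycline at 37C; 10 uM MG-132 defined full response.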
# [1] = measured here: control luc red channel unless noted
# [2] = measured here: IkB-luc green channel
# [3] = measured here: control luc red channel
smiles,measurement,setting,value
O=S(=O)(Nc1ccc(S(=O)(=O)N2CCCCC2)cc1)c1ccc(Br)s1,AC50,[1],"12.6 µM [falling, partial curve]"
Cc1ccc(C(=O)NCCSc2c[nH]c3ccccc23)cc1C,AC50,[1],"25.1 µM [falling, partial curve]"
Cc1cccc(NC(=O)c2ccc(F)c(S(=O)(=O)NCc3ccc4c(c3)OCO4)c2)c1,AC50,[1],"31.6 µM [falling, single point]"
Cc1cc(C)cc(NC(=O)CSc2oc(-c3cccs3)nc2S(=O)(=O)c2ccc(Br)cc2)c1,AC50,[1],"15.8 µM [falling, partial curve]"
COC(=O)c1sc2cccc(F)c2c1S(=O)(=O)NC(C)c1ccccc1 (centres undefined),AC50,[1],"7.94 µM [falling, full curve]"
CCc1ccc(NCc2cc3ccc(OC)cc3n(CC(=O)Nc3ccccc3OC)c2=O)cc1,AC50,[1],"12.6 µM [falling, partial curve]"
COC(=O)c1ccccc1NC(=O)Nc1cccnc1,AC50,[1],"12.6 µM [falling, partial curve]"
COc1ccc(S(=O)(=O)NCc2ccc(C(=O)N3CCN(c4ccccn4)CC3)cc2)cc1,AC50,[1],"20 µM [falling, single point]"
COc1ccc(OCc2nc(-c3ccc(OC)c(OC)c3)no2)cc1,AC50,[1],"0.0631 µM [falling, full curve, poor fit]"
CCN1CC2=C(OC(N)=C(C#N)C2c2cccs2)/C(=C/c2cccs2)C1 (centres undefined),AC50,[1],"31.6 µM [falling, partial curve]"
Cc1nnc(SCCc2ccccc2)[nH]c1=O,AC50,[1],"39.8 µM [falling, single point]"
O=C(CSc1nc2ccccc2[nH]1)c1cccs1,AC50,[1],"3.16 µM [falling, full curve]"
O=C(CCNc1ccc(F)cc1)c1ccco1,AC50,[1],"12.6 µM [falling, partial curve]"
COc1cccc(NC(=O)CSc2nnc3[nH]c(=O)cc(-c4ccccc4)n23)c1,AC50,[1],"12.6 µM [falling, partial curve, poor fit]"
CCOC(=O)C1CCCN(C(=O)c2ccc(C)c(NC(=O)c3nsc4ccccc34)c2)C1 (centres undefined),AC50,[1],"39.8 µM [falling, single point]"
Nc1c(S(=O)(=O)c2ccccc2)c2nc3ccccc3nc2n1/N=C/c1cccc(O)c1,AC50,[1],"3.16 µM [falling, full curve]"
Cc1ccc2cc(S(=O)(=O)NCCCC(=O)O)ccc2c1,AC50,[1],"10 µM [falling, partial curve]"
COc1ccc2c(c1)OCC1=C2CCC2(C)C(=O)CC=C12 (centres undefined),AC50,[1],"15.8 µM [falling, partial curve]"
Cc1ccc(C)c(-c2ccc(=O)n(C(C)C(=O)Nc3ccccc3C(F)(F)F)n2)c1 (centres undefined),AC50,[1],"31.6 µM [falling, single point]"
O=C(NC1CC(=O)N(c2cccc(F)c2)C1)c1ccc(S(=O)(=O)N2CCCCC2)cc1 (centres undefined),AC50,[1],"7.94 µM [falling, single point]"
Cc1ccc(OCC(=O)Nc2nnc(SCc3cc(=O)n4cc(C)ccc4n3)s2)cc1,AC50,[1],"1.58 µM [falling, full curve]"
CN(C)c1cccc(C(=O)Nc2ccc(-c3nc4ccccc4s3)cc2)c1,AC50,[1],"0.316 µM [rising, partial curve]"
O=C(CSc1nc2c(oc3ccccc32)c(=O)[nH]1)Nc1cccc(Cl)c1,AC50,[1],"12.6 µM [falling, partial curve]"
CCOC(=O)c1cccc(NC(=O)CCNS(=O)(=O)c2cccc3nonc23)c1,AC50,[1],"39.8 µM [falling, single point]"
Cc1ccc(CCNC(=O)c2ccc(CSCc3ccc(C)cc3)o2)cc1,AC50,[1],"25.1 µM [falling, single point]"
COc1ccc(-c2nc3scc(CCNS(=O)(=O)c4cccc(C(C)=O)c4)n3n2)cc1,AC50,[1],"10 µM [falling, partial curve]"
O=C1Nc2cc(Cl)ccc2Oc2cc(Oc3ccccc3)ccc21,AC50,[1],"1 µM [rising, full curve, poor fit]"
COCCn1c(-c2ccc(Cl)cc2)cnc1SCC(=O)NCc1cccs1,AC50,[2],"31.6 µM [falling, single point]"
same,AC50,[3],"15.8 µM [falling, partial curve]"
Cc1ccc(C)c(CN2C(=O)c3ccccc3S(=O)c3ccc(C(=O)NCc4ccco4)cc32)c1 (centres undefined),AC50,[1],"6.31 µM [falling, single point]"
Cc1ccc(NC(=O)Cn2cc(S(=O)(=O)NC(C)C)c(S(=O)(=O)NC(C)C)c2)cc1Cl,AC50,[1],"12.6 µM [falling, partial curve]"
COC(=O)c1c(SCC(=O)Nc2ccccc2OC)[nH]c2ccccc2c1=O,AC50,[1],"10 µM [falling, partial curve]"
Cc1cc2ccccc2n1-c1ccc(C(=O)N2CCC(C(=O)NCc3ccc(F)cc3)CC2)s1,AC50,[2],"0.0631 µM [rising, full curve]"
same,AC50,[3],"39.8 µM [falling, single point]"
COc1ccc(Oc2nc3c(c(=O)n(Cc4ccccc4Cl)c(=O)n3C)n2C)cc1,AC50,[1],"39.8 µM [falling, single point]"
Cc1ccc(C)c(N2CCN(C(=O)COc3cc(=O)n(C)c4ccccc34)CC2)c1,AC50,[1],"15.8 µM [falling, partial curve]"
Cc1c(Cl)cccc1NC(=O)CSc1cc(-c2ccccc2)ncn1,AC50,[1],"0.02 µM [falling, full curve, poor fit]"
Cc1ccc(-c2nnc(Nc3ccc(O)cc3)c3ccccc23)cc1S(=O)(=O)NCC1CCCO1 (centres undefined),AC50,[1],"10 µM [falling, partial curve]"
Cc1ccc(S(=O)(=O)Nc2ccc3c(c2)c(C(=O)OC(C)C)c(C)n3S(=O)(=O)c2ccc(C)cc2)cc1,AC50,[1],"0.158 µM [rising, full curve, poor fit]"
O=S(=O)(Nc1ccc(Br)cc1)c1ccc2nc(-c3ccccc3)[nH]c2c1,AC50,[1],"20 µM [falling, partial curve]"
O=C(CCC1N=C2c3ccccc3N=C(SCc3cccc(F)c3)N2C1=O)NCc1ccc(F)cc1 (centres undefined),AC50,[1],"39.8 µM [falling, single point]"
COc1ccccc1N=c1scc(-c2ccc3c(c2)NC(=O)CO3)n1CC1CCCO1 (centres undefined),AC50,[1],"15.8 µM [falling, partial curve]"
O=C1CC(N2CCCc3ccccc32)C(=O)N1c1ccccc1 (centres undefined),AC50,[1],"0.316 µM [falling, full curve]"
COc1ccc(C(=O)c2cn(Cc3cccc(C)c3)c3cc4c(cc3c2=O)OCCO4)cc1OC,AC50,[1],"39.8 µM [falling, single point]"
CCN(CC)CCNC(=O)Cn1ncc2c3ccccc3n(Cc3ccccc3C)c2c1=O,AC50,[1],"25.1 µM [falling, partial curve]"
COC(=O)c1ccccc1NC(=O)c1cc(=O)c2ccc(C)c(C)c2o1,AC50,[1],"39.8 µM [falling, single point]"
Cc1nnc2c3ccccc3nc(N3CCN(c4cccc(Cl)c4)CC3)n12,AC50,[1],"25.1 µM [falling, single point]"
Cc1cccc(-n2ncc3c(Nc4c(C)cc(C)cc4C)ncnc32)c1,AC50,[1],"31.6 µM [falling, single point]"
Oc1ccc(Nc2nc(-c3ccc(Cl)cc3)nc3ccccc23)cc1,AC50,[1],"25.1 µM [falling, single point]"
CCc1ccc(NC(=O)c2oc3c(c2C)-c2[nH]ncc2CC3)cc1,AC50,[1],"20 µM [falling, single point]"
CCc1ccc(NC(=O)c2ccc3c(c2)c(C)c(C)n3Cc2ccccc2)cc1,AC50,[1],"3.16 µM [rising, full curve]"
COc1ccc(NC(=O)c2cc(-c3cc(C)cc(C)c3O)n[nH]2)cc1Cl,AC50,[1],"3.16 µM [falling, full curve]"
COc1ccc(CCC(=O)NCc2nc3cccnc3n2Cc2ccc(OC)cc2)cc1,AC50,[1],"15.8 µM [rising, partial curve, poor fit]"
Cn1cc(S(=O)(=O)N2CCCCCC2)cc1C(=O)N1CCN(c2ccc(Cl)cc2)CC1,AC50,[1],"20 µM [falling, partial curve]"
Clc1ccc(CCNC(c2cccc(Cl)c2)c2nnc(-c3ccccc3)o2)cc1 (centres undefined),AC50,[1],"20 µM [falling, partial curve]"
Cc1nn(C)c2c1c(C(F)(F)F)cc(=O)n2C(C)C(=O)N1CCN(c2ccccc2)CC1 (centres undefined),AC50,[1],"20 µM [falling, partial curve]"
CC1=C(C(=O)Nc2ccccc2)C(c2ccccc2Cl)n2ncc(C(=O)Nc3cccc(C)c3)c2N1 (centres undefined),AC50,[1],"12.6 µM [falling, partial curve]"
CC(C)(C)OC(=O)N1CCC(c2c(C(=O)N3CCOCC3)cnn2-c2ccccc2Cl)CC1,AC50,[1],"0.00794 µM [falling, full curve, poor fit]"
COc1ccc(-c2nc(SCC(=O)Nc3cccc(C(C)=O)c3)n[nH]2)cc1,AC50,[1],"12.6 µM [falling, single point]"
O=C(Cc1ccccc1)Nc1cc(-c2nc3cc(Cl)ccc3o2)ccc1Cl,AC50,[1],"20 µM [falling, single point]"
COc1cccc(N(Cc2nnc3n2CCCCC3)C(=O)Nc2cccc(Cl)c2)c1,AC50,[1],"10 µM [rising, partial curve, poor fit]"
COC1=C(OC)c2ccccc2C(C(=O)O)N/C1=C(/C)Nc1ccncc1 (centres undefined),AC50,[1],"10 µM [falling, partial curve]"
O=C(NCC(c1cccs1)S(=O)(=O)c1cccs1)c1ccc(C(F)(F)F)cc1 (centres undefined),AC50,[1],"31.6 µM [falling, single point]"
CCOc1ccccc1NC(=O)N1CCCn2nc(C)cc21,AC50,[1],"3.16 µM [falling, partial curve]"

# Already shown: entries from further up.
smiles,measurement,setting,value
Cc1ccc(-c2nnc(Nc3ccc(O)cc3)c3ccccc23)cc1S(=O)(=O)NCC1CCCO1 (centres undefined),AC50,[1],"10 µM [falling, partial curve]"
Cc1ccc(S(=O)(=O)Nc2ccc3c(c2)c(C(=O)OC(C)C)c(C)n3S(=O)(=O)c2ccc(C)cc2)cc1,AC50,[1],"0.158 µM [rising, full curve, poor fit]"
O=S(=O)(Nc1ccc(Br)cc1)c1ccc2nc(-c3ccccc3)[nH]c2c1,AC50,[1],"20 µM [falling, partial curve]"
O=C(CCC1N=C2c3ccccc3N=C(SCc3cccc(F)c3)N2C1=O)NCc1ccc(F)cc1 (centres undefined),AC50,[1],"39.8 µM [falling, single point]"
COc1ccccc1N=c1scc(-c2ccc3c(c2)NC(=O)CO3)n1CC1CCCO1 (centres undefined),AC50,[1],"15.8 µM [falling, partial curve]"
O=C1CC(N2CCCc3ccccc32)C(=O)N1c1ccccc1 (centres undefined),AC50,[1],"0.316 µM [falling, full curve]"
COc1ccc(C(=O)c2cn(Cc3cccc(C)c3)c3cc4c(cc3c2=O)OCCO4)cc1OC,AC50,[1],"39.8 µM [falling, single point]"
CCN(CC)CCNC(=O)Cn1ncc2c3ccccc3n(Cc3ccccc3C)c2c1=O,AC50,[1],"25.1 µM [falling, partial curve]"
COC(=O)c1ccccc1NC(=O)c1cc(=O)c2ccc(C)c(C)c2o1,AC50,[1],"39.8 µM [falling, single point]"
Cc1nnc2c3ccccc3nc(N3CCN(c4cccc(Cl)c4)CC3)n12,AC50,[1],"25.1 µM [falling, single point]"
Cc1cccc(-n2ncc3c(Nc4c(C)cc(C)cc4C)ncnc32)c1,AC50,[1],"31.6 µM [falling, single point]"
Oc1ccc(Nc2nc(-c3ccc(Cl)cc3)nc3ccccc23)cc1,AC50,[1],"25.1 µM [falling, single point]"
CCc1ccc(NC(=O)c2oc3c(c2C)-c2[nH]ncc2CC3)cc1,AC50,[1],"20 µM [falling, single point]"
CCc1ccc(NC(=O)c2ccc3c(c2)c(C)c(C)n3Cc2ccccc2)cc1,AC50,[1],"3.16 µM [rising, full curve]"
COc1ccc(NC(=O)c2cc(-c3cc(C)cc(C)c3O)n[nH]2)cc1Cl,AC50,[1],"3.16 µM [falling, full curve]"
COc1ccc(CCC(=O)NCc2nc3cccnc3n2Cc2ccc(OC)cc2)cc1,AC50,[1],"15.8 µM [rising, partial curve, poor fit]"
Cn1cc(S(=O)(=O)N2CCCCCC2)cc1C(=O)N1CCN(c2ccc(Cl)cc2)CC1,AC50,[1],"20 µM [falling, partial curve]"
Clc1ccc(CCNC(c2cccc(Cl)c2)c2nnc(-c3ccccc3)o2)cc1 (centres undefined),AC50,[1],"20 µM [falling, partial curve]"
Cc1nn(C)c2c1c(C(F)(F)F)cc(=O)n2C(C)C(=O)N1CCN(c2ccccc2)CC1 (centres undefined),AC50,[1],"20 µM [falling, partial curve]"
